Laboratory results: patent US20050118678A1, “Modified polypeptides with therapeutic activity and methods of use” (priority 2003, published 2005)
For some of these results: Part of at least one peptide drawing is inferred or uncertain, most often the ends. For some of these results: At least one read-out could not be matched to a standard name with certainty. Some entries share one result that the patent states for a list of compounds. Residues, ends and D or L forms follow the SMILES beside them. *: point of attachment. Stearoyl = CCCCCCCCCCCCCCCCCC(=O)*; Lauroyl = CCCCCCCCCCCC(=O)*

What was measured:
human endothelial cells = experiment: Endothelial cell lysis in culture; type: cell-based
[1] = system: Gram-negative bacteria E. coli and P. aeruginosa
E. coli 055:B5 LPS = experiment: Limulus amoebocyte lysate assay for LPS neutralization; type: biochemical; settings: 0.04 unit E. coli 055:B5 LPS, chromogenic QCL-1000 kit; read-out: LPS Binding (IC50)
Description: Limulus amoebocyte lysate assay for lipopolysaccharide (LPS) neutralization. The ability of SC4 peptide and amphiphiles to neutralize endotoxin was measured using the chromogenic QCL-1000 kit from BioWhittaker, Inc. (Walkersville, Md). This method is quantitative for Gram-negative bacterial endotoxin (LPS) and uses peptide inhibition of LPS-mediated activation of a proenzyme as a measure of activity (Young et al., J. Clin. Invest. 51, 1790-1797 (1972)). Peptides of the appropriate concentration were mixed with Limulus amoebocyte lysate, 0.04 unit (0.01 nanogram (ng)) of E. coli 055:B5 LPS (SIGMA), and a colorless synthetic substrate (Ac-Ile-Glu-Ala-Arg-pNA) (SEQ ID NO: 18). Peptide binding to LPS was determined by monitoring enzymatic conversion of the substrate to yellow p-nitroaniline (pNA) via absorption at 410 nm. Endotoxin concentration was determined from the initial rate of enzyme activation. IC50 (concentration displaying 50% inhibition) values for LPS binding were determined by fitting to a dose-response curve.

Gram-positive bacteria = settings: cited from earlier work
Gram-negative bacteria = settings: cited from earlier work

SMILES | Concentration up to which endothelial cells in culture were not killed (human endothelial cells) [µM] | Change of LD50 relative to SC4 against P. aeruginosa (P. aeruginosa Type I) | Variation of LD50 relative to SC4 against E. coli [1] | IC50 (E. coli 055:B5 LPS) [nM] | Concentration displaying bactericidal activity against Gram-positive bacteria (Gram-positive bacteria) | Concentration displaying bactericidal activity against Gram-negative bacteria (Gram-negative bacteria)
CCCCCCCCCCCC(=O)N[C@@H](CCCCN)C(=O)N[C@@H](CC(C)C)C(=O)N[C@@H](Cc1ccccc1)C(=O)N[C@@H](CCCCN)C(=O)N[C@@H](CCCNC(=N)N)C(=O)N[C@@H](Cc1c[nH]cn1)C(=O)N[C@@H](CC(C)C)C(=O)N[C@@H](CCCCN)C(=O)N[C@@H](Cc1c[nH]c2ccccc12)C(=O)N[C@@H](CCCCN)C(=O)N[C@H](C(=O)N[C@H](C(N)=O)[C@@H](C)CC)[C@@H](C)CC [C12-SC4] (Lauroyl-KLFKRHLKWKII-NH2) | > 400 | essentially unchanged | factor of two or less |  |  | 
CC[C@H](C)[C@H](NC(=O)[C@@H](NC(=O)[C@H](CCCCN)NC(=O)[C@H](Cc1c[nH]c2ccccc12)NC(=O)[C@H](CCCCN)NC(=O)[C@H](CC(C)C)NC(=O)[C@H](Cc1c[nH]cn1)NC(=O)[C@H](CCCNC(=N)N)NC(=O)[C@H](CCCCN)NC(=O)[C@H](Cc1ccccc1)NC(=O)[C@H](CC(C)C)NC(=O)[C@@H](N)CCCCN)[C@@H](C)CC)C(N)=O [SC4, KLFKRHLKWKII, reference compound] (H-KLFKRHLKWKII-NH2) | > 400 |  |  | 590 | sub-micromolar concentrations | nanomolar concentrations
CCCCCCCCCCCCCCCCCC(=O)N[C@@H](CCCCN)C(=O)N[C@@H](CC(C)C)C(=O)N[C@@H](Cc1ccccc1)C(=O)N[C@@H](CCCCN)C(=O)N[C@@H](CCCNC(=N)N)C(=O)N[C@@H](Cc1c[nH]cn1)C(=O)N[C@@H](CC(C)C)C(=O)N[C@@H](CCCCN)C(=O)N[C@@H](Cc1c[nH]c2ccccc12)C(=O)N[C@@H](CCCCN)C(=O)N[C@H](C(=O)N[C@H](C(N)=O)[C@@H](C)CC)[C@@H](C)CC [C18-SC4] (Stearoyl-KLFKRHLKWKII-NH2) | > 400 | essentially unchanged | factor of two or less |  |  | 
